From patent US20040191171A1, “Method of detecting skin stimulation effect” (priority 2001, published 2004)
For at least one compound, name, drawing or mass did not settle the structure. No end group written: not given here.

Test system: epidermal keratinocytes
Assay: Intracellular calcium ion concentration in epidermal keratinocytes after adding pain-producing substances
Format: cell-based
Settings: two seconds after addition of the solution; FIG. 3
Description: (a) Commercially available epidermal keratinocytes (product of Kurabo Industries Ltd.) were subjected to culture by means of a customary method by use of a KGM medium which had been prepared through the following procedure: MCDB153IK (product of Kyokuto Pharmaceutical Industrial Co., Ltd.) (10.93 g), N-2-hydroxyethylpiperazine-N′-2-ethanesulphonic acid (HEPES) (6.7 g), NaHCO3 (1.2 g), insulin (5 mg), hydrocortisone (0.5 mg), transferrin (10 mg), phosphorylethanolamine (14.1 mg), EGF (10 μg), penicillin (100 mg), and kanamycin (60 mg) were dissolved in purified water (1 L); the pH of the resultant solution was adjusted to 7.4 by use of NaOH; the resultant solution was subjected to filter sterilization; and bovine pituitary gland extract (product of Kyokuto Pharmaceutical Industrial Co., Ltd.) (55 mg) was added to the resultant solution immediately before use of the solution. […]
The fluorescence intensity was measured over time by means of a customary method by use of a fluorescence microplate reader (485 nm, 538 nm).
The concentration of intracellular calcium ions in the cells was calculated by use of the following formula. […]
Fmin: Fluorescence intensity of Fluo3-AM when EDTA is added and Ca^2+ is blocked (minimum fluorescence intensity)
Fmax: Fluorescence intensity of Fluo3-AM in the presence of excess Ca^2+ (breakage of cell membranes by a surfactant) (maximum fluorescence intensity) […]

Sequence: RPPGFSPFR [bradykinin, Bradykinin]
- bradykinin concentration at which the concentration of intracellular calcium ions is increased: ≥ 10^−8 M
